The other results are listed elsewhere or left out. These are further read-outs of the screen, such as a control signal, another cell line or another target. No call is given for them. Most of these compounds were active or inconclusive in the main read-out, so they are no random draw. The note in brackets gives the kind of curve behind each potency; many fits are weak.

A short description of the assay: qHTS Assay for Lipid Storage Modulators in Drosophila S3 Cells.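 On cell number change: cells counted by Cell Tracker Red CMTPX staining in the red channel.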 The note with it: BODIPY lipid droplet fluorescence, 18-24 h; for cell number change: measured here: cell count max response, cells fed with added oleic acid. Put shortly: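 Drosophila S3 cells loaded with oleic acid (400 uM, as added) and compounds at several concentrations; lipid droplets imaged by 488-nm laser-scanning cytometry, 500–530 nm intensity and object ratio to cell channel. Percent activity normalized to 20 uM Triacsin C.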
For orientation: Quantitative high-throughput screening tests each substance at several concentrations.

The mark [1] stands for this setting: measured here: lipid fluorescence (Fed channel) AC50, cells fed with added oleic acid.
[2] abbreviates: measured here: cell number channel AC50, cells fed with added oleic acid.

The AC50 is the concentration giving half of the maximal activity seen. Take `Cc1ccc(C(=O)Nc2cccnc2)cc1S(=O)(=O)N1CCCC1`: the cell number change was -21.3%. Besides, under setting [1], the AC50 is 20.6 µM [falling, single point].

With `COc1ccc([C@@H]2[C@@H]3C(=O)N(C(C)(C)C)C(=O)[C@@H]3[C@]3(CC(C)C)C(=O)N(c4cccc(F)c4)C(=O)N23)cc1`, the cell number change amounted to 21.1%. In addition, the half-maximal activity concentration (AC50) under setting [1] was 4.11 µM [falling, single point].

In the case of `Cc1cc(C(=O)N2CCN(c3ncccc3C#N)CC2)no1`, the cell number change is -54.3%. Further, under setting [2], the half-maximal activity concentration (AC50) was 0.411 µM [falling, full curve]. Moreover, the AC50 under setting [1] is 0.58 µM [falling, full curve].

With `CC(=O)Nc1ccc(NC(=O)[C@H](C)NC(=O)c2ccco2)cc1`, the cell number change amounted to 43.1%. Under setting [2], the AC50 is 20.6 µM [rising, partial curve, poor fit].

Turning to `Cc1c(NCc2cc(Cl)cc(Cl)c2O)c(=O)n(-c2ccccc2)n1C`, the cell number change is -2.38%. In addition, the AC50 under setting [2] was 0.146 µM [falling, full curve, poor fit].

`CCOC(=O)C(C)Sc1nnc(Cc2cc(=O)[nH]c(=O)[nH]2)n1-c1cccc(OC)c1` (stereo not given): the cell number change was -0.0541%.

On to `O=c1ccc(S(=O)(=O)N2CCCC2)cn1Cc1nc(-c2ccc(F)cc2)no1`, for which the AC50 under setting [1] was 0.164 µM [rising, full curve].

Turning to `O=C(CSc1nnc(Cc2cc(=O)[nH]c(=O)[nH]2)n1-c1ccc(F)cc1)NC1CCCC1`, the cell number change is -15.1%. Under setting [1], the AC50 was 2.06 µM [falling, single point].

As for `COc1ccc(CNC(=O)COc2cc(O)c3c(c2)OC(C)(C)CC3=O)cc1`, the cell number change came out at 21.6%. Under setting [1], the AC50 is 29.1 µM [rising, single point].

Turning to `O=C(C1CCCO1)N1CCc2ccccc21` (stereo not given), the cell number change is 9.59%. Besides, under setting [1], the half-maximal activity concentration (AC50) is 18.4 µM [falling, partial curve].

Turning to `COc1ccc(Cc2n[nH]c(=S)n2NC(=O)Nc2ccc(C)cc2)cc1`, the cell number change is -22.2%. Moreover, the AC50 under setting [1] was 0.00461 µM [falling, full curve, poor fit].

On to `COc1ccc(CN2CCCC(C(=O)N3CCc4ccccc4C3)C2)cc1OC` (stereo not given), for which the cell number change came to 7.91%. In addition, the AC50 under setting [2] is 6.51 µM [rising, single point].

Turning to `Cc1ccc(C)c(S(=O)(=O)N2CCCC2CNC(=O)C(=O)NCCN2CCOCC2)c1` (stereo not given), the cell number change was -39.4%.

`Cc1ccc(CCNC(=O)CNC(=O)c2cccs2)cc1`: the cell number change was 41.7%. Further, the AC50 under setting [2] was 0.58 µM [rising, partial curve]. For the same compound, under setting [1], the AC50 was 9.2 µM [rising, partial curve].

Regarding `NC(=O)c1cc([N+](=O)[O-])ccc1NCC1CCCCC1`, the cell number change is -49.3%. In addition, the AC50 under setting [2] was 29.1 µM [falling, single point]. For the same compound, the AC50 under setting [1] is 5.17 µM [falling, single point].

On to `CCn1c(SCC(=O)Nc2ccc(NC(C)=O)cc2)nc2c([nH]c3ccccc32)c1=O`, for which the cell number change came out at 18.1%. Further, the half-maximal activity concentration (AC50) under setting [2] is 2.06 µM [falling, single point]. Also, under setting [1], the AC50 is 0.00461 µM [rising, full curve, poor fit].

`COc1ccccc1N1CCN(C(=O)c2ccc(S(=O)(=O)N3CCCC3)cc2)CC1`: the cell number change was 15.2%. The concentration at half-maximal activity (AC50) under setting [1] was 10.3 µM [rising, partial curve].

As to `O=C(NC(=S)NNS(=O)(=O)c1ccccc1)c1ccc([N+](=O)[O-])cc1`, the cell number change is -4.31%. For the same compound, the AC50 under setting [1] was 0.291 µM [falling, full curve, poor fit].

In the case of `Cc1ccc(CSc2sc(C(=O)c3ccccc3)c(N)c2C#N)cc1`, the cell number change stood at 68.1%. In addition, under setting [2], the concentration at half-maximal activity (AC50) is 2.06 µM [rising, full curve]. Also, the AC50 under setting [1] was 14.6 µM [rising, partial curve].

Turning to `Cc1ccc(NC(=O)Cc2nnc(SCC(=O)NC3CCCC3)n2C)c(C)c1`, the cell number change was -7.89%.

As to `O=C(CCC(=O)Nc1ccc(Cl)cc1Cl)NNC(=O)Nc1ccccc1`, the cell number change is 15%.

Consider `COC(=O)CCC(=O)Nc1cccc(C(=O)Nc2cccc(Cl)c2)c1`, for which the cell number change was -35.2%. Besides, the AC50 under setting [2] is 0.0058 µM [falling, full curve, poor fit]. Under setting [1], the concentration at half-maximal activity (AC50) was 16.4 µM [falling, partial curve, poor fit].

Regarding `COC(=O)c1ccccc1-c1ccc(/C=C2\C(=O)N(c3ccccc3)N=C2c2ccccc2)o1`, the cell number change was -26.9%. In addition, the AC50 under setting [1] was 32.6 µM [falling, partial curve, poor fit].

With `CCn1c(COC(=O)CNC(=O)c2cc(OC)c(OC)c(OC)c2)nc2cc(S(=O)(=O)N(C)C)ccc21`, the cell number change was 14.7%. For the same compound, the half-maximal activity concentration (AC50) under setting [1] is 4.61 µM [falling, single point].

For `COc1cccc(CNc2ccc3c(c2)ncn3C(C)C)c1OC`, the cell number change is 4.17%.

Take `N#Cc1c(-c2ccccc2)nc2n(-c3ccccc3)nc(C(=O)Nc3ccccc3)n2c1=O`: the cell number change is 83.8%. Further, the AC50 under setting [2] is 1.64 µM [rising, full curve]. For the same compound, the half-maximal activity concentration (AC50) under setting [1] is 1.46 µM [rising, partial curve].

Turning to `COc1cc2c(cc1NC(=O)Cc1ccc(C)cc1)oc1ccccc12`, the cell number change is 11.3%. The AC50 under setting [1] was 0.326 µM [falling, full curve].

With `CCC1CCCCN1C(=S)NC(=O)c1ccc([N+](=O)[O-])cc1` (stereo not given), the cell number change was 167%.

Take `O=C1C=C(/C=C/C2C=CC=CC2)C[C@@H](c2ccc(Cl)cc2)C1` (stereo not given in full): the cell number change was -29.8%.

Turning to `CCOc1ccc(S(=O)(=O)N(C)c2ccc(OCC(=O)NC3=NCCS3)cc2)cc1`, the cell number change worked out at 9.5%.

Consider `CC(=O)NC(c1ccc(Cl)cc1Cl)c1ccc2cccnc2c1O` (stereo not given), for which the cell number change was -44.2%. The AC50 under setting [2] is 18.4 µM [falling, partial curve].

For `c1ccc2c3c(c(CN4CCCCC4)cc2c1)COC3`, the cell number change was -26.5%. In addition, the half-maximal activity concentration (AC50) under setting [1] is 29.1 µM [falling, single point].

For the compound `Cc1ccc(C)c(C(=O)CN2C(=O)C(=O)N(C3CCCC3)C2=O)c1`, the cell number change was -10.2%. The AC50 under setting [1] is 29.1 µM [falling, single point].

Consider `CCNc1nc(Nc2ccc(C)c(Cl)c2)c2cnn(C)c2n1`, for which the cell number change was -19.9%. In addition, the AC50 under setting [1] was 8.2 µM [falling, partial curve].

As for `O=C(CNC(=O)c1sc2ccccc2c1Cl)NC1CC1`, the cell number change was -28.4%. The half-maximal activity concentration (AC50) under setting [2] is 0.461 µM [falling, full curve, poor fit]. In addition, the AC50 under setting [1] was 1.46 µM [falling, full curve].

For the compound `S=C(NCCc1ccccc1)Nc1ccc(Br)cc1`, the cell number change was -37.1%. In addition, the AC50 under setting [2] is 1.64 µM [falling, partial curve].

As for `O=c1cc(N2CCN(c3ccccc3)CC2)[nH]c(=O)n1-c1ccccc1`, the cell number change was 24.4%.

`CC(=O)Nc1ccc(SC[C@H](Cc2ccccc2)N2CC[C@@H](C(C)(C)C)CCC2=O)cc1`: the cell number change was -33.7%. Moreover, the half-maximal activity concentration (AC50) under setting [2] is 18.4 µM [falling, single point].

Regarding `C[C@@H]1NC(=O)[C@@]2(C)[C@@H](c3ccccc3)[C@H]3COc4ccc(Cl)cc4[C@@H]3N2C1=O`, the cell number change was -9.15%. Moreover, under setting [1], the AC50 was 0.116 µM [rising, full curve, poor fit].

Regarding `O=C(Nc1ccc(Cl)cc1)N(Cc1cccnc1)Cc1ccco1`, the half-maximal activity concentration (AC50) was 2.31 µM [rising, partial curve] under setting [2] and 1.84 µM [rising, partial curve] under setting [1].

Consider `CCOC(=O)c1ccc(N2C(=O)C(C)=C(C)C2=O)cc1`, for which the cell number change was -10.1%. Under setting [1], the AC50 was 0.00517 µM [rising, full curve, poor fit].

For `C(=C\c1ccccc1)/C=N/Nc1nc2ccccc2s1`, the cell number change is -16.2%. In addition, the AC50 under setting [1] is 0.291 µM [rising, partial curve, poor fit].

In the case of `COc1ccccc1NC(=O)CCSc1ccc(C)cc1`, the cell number change was -36.8%. Moreover, under setting [2], the concentration at half-maximal activity (AC50) was 29.1 µM [falling, single point]. Further, the AC50 under setting [1] was 29.1 µM [falling, single point].

As for `CCOC(=O)c1cc2occc2n1CC(=O)N1CCCc2ccccc21`, the cell number change is -15.8%. Also, under setting [1], the AC50 was 14.6 µM [rising, partial curve, poor fit].

As to `O=C(Nc1ccc2c3c(cccc13)CC2)c1ccc(Br)o1`, the cell number change came out at 141%. Moreover, the AC50 under setting [2] was 18.4 µM [rising, partial curve, poor fit].

In the case of `CCCOc1ccc(C2/C(=C(\O)c3c(C)[nH]c(C(=O)OC)c3C)C(=O)C(=O)N2CCN(C)C)cc1` (stereo not given), the cell number change was -3.2%.

Regarding `O=C(O)c1cccc(N2C(=O)C3C4C=CC(C4=C(c4ccccc4)c4ccccc4)C3C2=O)c1` (stereo not given), the cell number change was -9.24%. Besides, under setting [2], the AC50 was 3.26 µM [rising, single point].

Regarding `Nc1nc(SCC(=O)Nc2ccc(OC(F)(F)F)cc2)[nH]c(=O)c1NC(=O)c1ccc(Br)o1`, the cell number change is -0.54%. Under setting [1], the AC50 is 0.00461 µM [falling, full curve, poor fit].

In the case of `CCOC(=O)C1=C(N)n2c(s/c(=C\c3cccs3)c2=O)=C(C(=O)OCC)C1c1cccs1` (stereo not given), the cell number change turned out to be 27.9%. Further, the AC50 under setting [1] is 29.1 µM [rising, single point].

Take `O=C(Cc1cccs1)Nc1cccc(-c2nc3cc4ccccc4cc3[nH]2)c1`: the cell number change stood at 58.8%. Under setting [2], the AC50 was 5.17 µM [rising, partial curve].

Take `Cc1cccc(NC(=O)C[n+]2ccc(N(C)C)cc2)c1`: the cell number change is -31.5%. In addition, the AC50 under setting [2] was 20.6 µM [falling, partial curve, poor fit]. Also, the AC50 under setting [1] was 0.146 µM [falling, full curve, poor fit].

In the case of `Cc1nc2cc(N3CCCCC3)c(NC(=O)c3ccncc3)cc2c(=O)n1Cc1ccccc1`, the cell number change is 49.3%. Also, the half-maximal activity concentration (AC50) under setting [2] is 14.6 µM [rising, partial curve]. For the same compound, the AC50 under setting [1] is 6.51 µM [falling, single point].

For the compound `CC(C)N1CCN(Cc2ccc(OC3CCCC3)cc2)CC1CCO` (stereo not given), the cell number change turned out to be 12.5%. Moreover, the concentration at half-maximal activity (AC50) under setting [1] was 29.1 µM [rising, single point].

As to `O=c1[nH]cc(O)c(=O)[nH]1`, the cell number change worked out at 19.4%. Moreover, the AC50 under setting [1] was 6.51 µM [falling, single point].

On to `Cc1ccc(NC(=O)c2ccccc2-c2ccccc2C(=O)O)cc1`, for which the cell number change stood at 8.3%. The AC50 under setting [1] is 6.51 µM [falling, single point].

With `CCN(Cc1ccc2c(c1)OCCO2)C(=O)CSc1nc(C)nc2sc(C)c(C)c12`, the cell number change was -3.21%.

Consider `CCOC(=O)c1ccc(Oc2cc(C)nc(Cl)n2)cc1`, for which the cell number change was -9.01%.

Take `CN(C(=O)COC(=O)c1cn(-c2ccccc2)nc1-c1ccccc1)C1CCS(=O)(=O)C1` (stereo not given): the cell number change was determined as 11.1%. Besides, the concentration at half-maximal activity (AC50) under setting [2] was 6.51 µM [rising, partial curve, poor fit]. Further, the concentration at half-maximal activity (AC50) under setting [1] was 29.1 µM [rising, single point].

Source of the values: PubChem BioAssay AID2685 (National Center for Advancing Translational Sciences (NCATS), 2010).
